Where a name gives a salt, the structure may show the parent alone. The list shows a part of the results. Repeats are few or missing, and single values can be far off.
tested on: Caenorhabditis elegans ST65 (ncIs13[ajm-1::GFP]); test: vulvae per adult worm (MAPK/ERK-dependent vulval induction, MetaXpress) (vulvae/adult); higher = more vulval induction (less MAPK/ERK inhibition); settings: 10 µM; exposure time: 4-5 days from L1 at 20°C

Row | Structure (SMILES) | vulvae per adult worm
1 | CN(C)C(=N)NC(=N)N [Metformin HCl] | 1
2 | NC(=S)N/N=C/c1ncccc1N [Triapine] | 1
3 | Cc1ccc(F)c(NC(=O)Nc2ccc(-c3cccc4[nH]nc(N)c34)cc2)c1 [Linifanib (ABT-869)] | 0.8
4 | CN(C(=O)c1ccc(F)cc1C(F)(F)F)C1CCN(c2nnc(-c3ccnn3C)c3ccccc23)CC1 | 1.25
5 | N#CC[C@H](C1CCCC1)n1cc(-c2ncnc3[nH]ccc23)cn1 | 0.517
6 | C[C@@H](Oc1cc(-c2cnn(C3CCNCC3)c2)cnc1N)c1c(Cl)ccc(F)c1Cl | 0.977
7 | COc1cc(Nc2ncc3c(n2)-c2ccc(Cl)cc2C(c2c(F)cccc2OC)=NC3)ccc1C(=O)O [Alisertib (MLN8237)] | 0.667
8 | C=CC(=O)Nc1cccc(Nc2nc(Nc3ccc(OCCOC)cc3)ncc2F)c1 [Spebrutinib (CC-292, AVL-292)] | 0.732
9 | CS(=O)(=O)c1ccc(-c2cnc(N)c(C(=O)Nc3ccccc3)n2)cc1 | 0.788
10 | CCS(=O)(=O)N1CC(CC#N)(n2cc(-c3ncnc4[nH]ccc34)cn2)C1 | 0.875
11 | NC(=O)/C(=C/n1cnc(-c2cc(C(F)(F)F)cc(C(F)(F)F)c2)n1)c1cncnc1 [Eltanexor (KPT-8602)] | 0.75
12 | COc1cc([C@@H]2c3cc4c(cc3[C@@H](O[C@@H]3O[C@@H]5CO[C@@H](c6cccs6)O[C@H]5[C@H](O)[C@H]3O)[C@H]3COC(=O)[C@H]23)OCO4)cc(OC)c1O [Teniposide] | 1.08
13 | CCCN(CCC)C(=O)C1=Cc2ccc(-c3ccc(C(=O)N4CCCC4)cc3)cc2N=C(N)C1 [Motolimod (VTX-2337)] | 0.889

2 of the compounds above, as tab-separated lines.
Row	Structure (SMILES)	vulvae per adult worm
9	CS(=O)(=O)c1ccc(-c2cnc(N)c(C(=O)Nc3ccccc3)n2)cc1	0.788
10	CCS(=O)(=O)N1CC(CC#N)(n2cc(-c3ncnc4[nH]ccc34)cn2)C1	0.875
